Measurements reported in PubChem BioAssay AID1224828 (NIAID, 2016).

Screen: 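Knock-downs that increase or decrease LPS-induced p65 nuclear translocation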 (primary screen)
Cell system: mouse RAW264.7 G9 macrophage reporter cells (GFP-p65, Tnf promoter-mCherry)
Reagents: siRNA pool against mouse genes, 100 nM
Timing: 2 days siRNA transfection, then 40 min LPS before fixation
Challenge: LPS (Salmonella minnesota R595) at 10 ng/ml
Measured: 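Microscopy ratio of nuclear to perinuclear-ring GFP-p65 signal, scaled to the plate median; gene score is the average of two replicate robust z-scores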
Reading the numbers: p65 translocation robust z-score: higher = more nuclear NF-kappaB p65 after LPS than the plate median; nuclear/cytoplasmic p65 ratio: higher = more nuclear NF-kappaB p65
Call rule: 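Called active when z exceeds 3.3 or falls under -1.56 (median of Tlr4 controls), giving activity score of at least 50; no calls for control wells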
Calls: active = hit (p65 shift raised or lowered); inactive = no clear change
The whole screen tested about 17,000 reagents; this is a random part of them. 762 of them (4.5%) were called active. 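Active calls include both raised and lowered p65 entry, mostly lowered; wells with fewer than 50 cells lack a z-score.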 Raw values vary from plate to plate and are shown uncorrected. Unmarked entries are inactive. Reagent sequences are not shown.

gene knocked down	p65 translocation robust z-score	nuclear/cytoplasmic p65 ratio, rep 1	nuclear/cytoplasmic p65 ratio, rep 2	low cell count flag
St18	0.67	1.22	1.31	enough cells to score
Myf5	1.48	1.59	1.57	enough cells to score
Cmtm1	1.57	1.91	1.95	enough cells to score
Padi4		1.54	1.49	fewer than 50 cells per well; well left out of scoring
Cdc14b	0.33	1.59	1.35	enough cells to score
Rab40b	0.18	1.55	1.41	enough cells to score
Jam3	0.1	1.58	1.43	enough cells to score
Trak2	-0.11	1.61	1.59	enough cells to score
Wasf2	-0.81	1.44	1.44	enough cells to score
Mcm3ap	-1.66 (active)	1.09	1.14	enough cells to score
Exoc8	-0.13	1.5	1.76	enough cells to score
Cyren		1.62	1.47	fewer than 50 cells per well; well left out of scoring
Scnn1b	0.55	1.53	1.74	enough cells to score
Ephx2	-1.53	1.25	1.18	enough cells to score
Or1e33	-0.37	1.61	1.32	enough cells to score
Timeless	-0.8	1.44	1.38	enough cells to score
Nod1	0.34	1.65	1.68	enough cells to score
Gas2	0.71	1.52	1.47	enough cells to score
Tmem139	-0.82	1.22	1.47	enough cells to score
Ptges3l		1.68	1.44	fewer than 50 cells per well; well left out of scoring
AI661453	-0.6	1.63	1.36	enough cells to score
Ift81	1.44	1.63	2.21	enough cells to score
Arl8b	2.05	1.82	1.89	enough cells to score
Serpinb2	-1.16	1.37	1.4	enough cells to score
Or3a1d		1.54	1.28	fewer than 50 cells per well; well left out of scoring
Acyp2	0.07	1.57	1.68	enough cells to score
Phyh	-0.4	1.42	1.38	enough cells to score
Or6aa1		1.49	1.36	fewer than 50 cells per well; well left out of scoring
Drd2	0.38	1.66	1.31	enough cells to score
Zfp524		1.15	1.18	fewer than 50 cells per well; well left out of scoring
Emx2	0.98	1.57	1.52	enough cells to score

6 entries from above, sorted by “nuclear/cytoplasmic p65 ratio, rep 1”, lowest first.
gene knocked down	p65 translocation robust z-score	nuclear/cytoplasmic p65 ratio, rep 1	nuclear/cytoplasmic p65 ratio, rep 2	low cell count flag
Tmem139	-0.82	1.22	1.47	enough cells to score
Ephx2	-1.53	1.25	1.18	enough cells to score
Timeless	-0.8	1.44	1.38	enough cells to score
Gas2	0.71	1.52	1.47	enough cells to score
Or1e33	-0.37	1.61	1.32	enough cells to score
Nod1	0.34	1.65	1.68	enough cells to score

Additional reagents follow.
gene knocked down	p65 translocation robust z-score	nuclear/cytoplasmic p65 ratio, rep 1	nuclear/cytoplasmic p65 ratio, rep 2	low cell count flag
Dpys	0.76	1.69	1.38	enough cells to score
Morf4l1	-0.79	1.71	1.42	enough cells to score
Mc4r	1.33	1.73	1.74	enough cells to score
Gimap6		1.44	1.48	fewer than 50 cells per well; well left out of scoring
Vmn1r40	0.65	1.47	1.3	enough cells to score
Gnb1l	0.16	1.7	1.54	enough cells to score
Rapgef1	0.45	1.59	1.57	enough cells to score
Chga	-0.45	1.4	1.32	enough cells to score
Mink1	-0.36	1.65	1.32	enough cells to score
Fhip1b	1.37	1.45	1.28	enough cells to score
Megf9	0.08	1.59	1.27	enough cells to score
Dmrt3	-1.15	1.36	1.2	enough cells to score
Glce	1.25	1.5	1.65	enough cells to score
9530080O11Rik		1.23	1.51	fewer than 50 cells per well; well left out of scoring
Vav3	-0.11	1.52	1.51	enough cells to score
Or4f56	0.49	1.69	1.48	enough cells to score
Tecr	0.33	1.6	1.6	enough cells to score
Srsf5	-0.09	1.59	1.25	enough cells to score
Apol9b	-0.28	1.55	1.59	enough cells to score
Sim2	-0.6	1.35	1.59	enough cells to score
Or4a75	0.58	1.69	1.5	enough cells to score
Scrt1	-0.98	1.26	1.13	enough cells to score
Vmn1r21		1.68	1.36	fewer than 50 cells per well; well left out of scoring
Kcnj1	1.99	1.72	1.66	enough cells to score
Adam24	-0.76	1.4	1.66	enough cells to score
Tbc1d7		1.41	1.21	fewer than 50 cells per well; well left out of scoring
Tmed9	-1.09	1.22	1.12	enough cells to score
Ccdc74a	-0.35	1.53	1.59	enough cells to score
